System: NaV channels endogenously expressed in GH3b6 cells
Test: FRET voltage sensor probe (VSP) assay of BTX-induced depolarization in GH3b6 cells
Format: cell-based, rat
Details: BTX 1 µM, n = 6

Row | Compound | Hill Slope, inhibition of BTX-evoked VSP signal
1 | COc1cccc2c1C(=O)c1nccc3cc4c(c-2c13)OCO4 [IA14, oxostephanine] | 0.78 ± 0.12
2 | O=C1c2ccccc2-c2c3c(cc4ccnc1c24)OCO3 [IA39, liriodenine] | 0.91 ± 0.19
3 | COc1cc2c3cc1Oc1cc(ccc1O)CC1c4c(cc(OC)c(O)c4Oc4ccc(cc4)CC3N(C)CC2)CCN1C (stereo not shown) [IA52, bebeerine] | 1.04 ± 0.29
4 | protopine [IA69] | 0.99 ± 0.19
